This experiment concerns the target T1, GFP-delta-tubulin (human) (UniProt Q9UJT1).
T1 sequence: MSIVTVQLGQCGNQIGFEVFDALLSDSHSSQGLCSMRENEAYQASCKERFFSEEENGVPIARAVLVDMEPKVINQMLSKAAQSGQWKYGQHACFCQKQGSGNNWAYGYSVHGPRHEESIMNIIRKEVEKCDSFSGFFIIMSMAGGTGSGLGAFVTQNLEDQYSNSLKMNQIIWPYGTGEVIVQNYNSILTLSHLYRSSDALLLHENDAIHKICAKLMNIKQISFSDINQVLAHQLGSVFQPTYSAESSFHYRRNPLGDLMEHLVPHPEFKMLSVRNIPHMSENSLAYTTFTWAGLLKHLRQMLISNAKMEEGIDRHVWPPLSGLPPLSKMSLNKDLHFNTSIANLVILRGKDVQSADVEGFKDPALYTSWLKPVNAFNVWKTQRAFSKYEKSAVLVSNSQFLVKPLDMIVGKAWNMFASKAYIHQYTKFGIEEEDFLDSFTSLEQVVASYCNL
Nature of the experiment: co-IP; HEK293T cells co-transfected with tagged proteins; lysate (50 mM Hepes pH 7.4, 150 mM NaCl, 1 mM DTT, 1 mM EGTA, 1 mM MgCl2, 0.25 mM GTP, 0.5% Triton X-100) incubated 2 hr at 4°C with GFP-binding protein on Sepharose; blots with anti-GFP and anti-myc.

Results are given in words; binding and its absence hold for the method and conditions named. In cells and extracts the contact can be indirect. Some results given as binding are weak or reduced against the parent protein; the word gives no strength. Sequences can lack the tags named with a protein.

B1: myc-epsilon-tubulin (protein, UniProt Q9UJT0 1-475)
chain: MTQSVVVQVGQCGNQIGCCFWDLALREHAAVNQKGIYDEAISSFFRNVDTRVVGDGGSISKGKICSLKARAVLIDMEEGVVNEILQGPLRDVFDTKQLITDISGSGNNWAVGHKVFGSLYQDQILEKFRKSAEHCDCLQCFFIIHSMGGGTGSGLGTFLLKVLEDEFPEVYRFVTSIYPSGEDDVITSPYNSILAMKELNEHADCVLPIDNQSLFDIISKIDLMVNSGKLGTTVKPKSLVTSSSGALKKQHKKPFDAMNNIVANLLLNLTSSARFEGSLNMDLNEISMNLVPFPQLHYLVSSLTPLYTLTDVNIPPRRLDQMFSDAFSKDHQLLRADPKHSLYLACALMVRGNVQISDLRRNIERLKPSLQFVSWNQEGWKTSLCSVPPVGHSHSLLALANNTCVKPTFMELKERFMRLYKKKAHLHHYLQVEGMEESCFTEAVSSLSALIQEYDQLDATKNMPVQDLPRLSIAM
For the molecule B1, the binding result is listed as “binds”.

These data come from paper PMC5653238.
